The campaign covered roughly 360,000 compounds. About 7,500 (2.1%) were called active. This list was built around the results that the source calls inconclusive (neither active nor inactive); the mix of calls is not that of the screen. The call rests on the fitted dose curve; in most records, active means well fitted inhibition curve with a large enough effect; inconclusive means small, poorly fitted or top-dose-only effect, or effect the other way; inactive means flat fitted curve, though single readings scatter. Potencies of inconclusive entries are doubtful fits and often do not repeat.
test: Nrf2 qHTS screen for inhibitors; details: A549 ARE-Fluc reporter, luciferase luminescence, 18-24 h; series mostly up to 46 µM; further: nearly all actives have a fitted effect of over 60% in size
Procedure, shortened: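 A549 ARE_Fluc cells, 5000/well, 5% FBS OPTI-MEM; compounds in dose-response, 18-24 h at 37 °C/5% CO2; CellTiter-Fluor viability read (Ex 405/Em 525), then BugLite luciferase luminescence = Nrf2 activity.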
Potency means the concentration at half of the fitted maximal effect.

| Structure (SMILES) | Potency |
| --- | --- |
| CCOc1cc(NC(=O)c2ccco2)c(OCC)cc1NC(=O)c1cc(OC)c(OC)c(OC)c1 | active: 18.4 µM |
| O=C(Nc1cccc(S(=O)(=O)N2CCCCCC2)c1)c1ccc2c(c1)OCO2 | inconclusive: 29.1 µM [falling, single point] |
| COc1ccc(CC(=O)Nc2sc3c(c2C(=O)Nc2ccc(C)cc2)CCCCC3)cc1 | inactive |
| Cc1cc2c(c(/C=C/C(=O)c3ccccc3)c1)OC1(C=C2)Oc2ccccc2C(=O)N1C (centres undefined) | inconclusive: 18.4 µM [falling, single point] |
| CCCc1nnc(NC(=O)CCC(=O)N2CCN(CCOc3ccc(C)cc3)CC2)s1 | inconclusive: 18.4 µM [falling, partial curve, poor fit] |
| C/C(=C\c1ccccc1)CN1CCC(C(=O)N2CCCC(C)C2)CC1 (centres undefined) | inconclusive: 0.0041 µM [falling, full curve, poor fit] |
| O=C(c1cccc(Cl)c1)N1CCCC(C(=O)N2CCCCCC2)C1 (centres undefined) | inconclusive: 6.51 µM [falling, single point] |
| Cc1ccc(N(CC(=O)Nc2ccc(OC(F)(F)F)cc2)S(=O)(=O)c2c(C)noc2C)cc1 | inconclusive: 32.6 µM [falling, single point] |
| Cc1ccc(/C=C/C(=O)NC2=NCCS2)cc1 | inconclusive: 3.66 µM [activator, full curve] |
| CC(=O)C1=C(O)CC(c2ccccc2)CC1=NCCc1c(C)[nH]c2ccccc12 (centres undefined) | inconclusive: 29.1 µM [falling, single point] |
| COc1cccc(N2CCN(C(=O)c3nc(-c4ccc(Cl)cc4)n4c3CCCCC4)CC2)c1 | inactive |
| Cc1nnsc1C(=O)Nc1ccc(S(=O)(=O)N2CCC(C)CC2)cc1 | active: 9.2 µM |
| Cc1cccc(NC(=O)C2CCCN(S(=O)(=O)c3cccc4cccnc34)C2)c1 (centres undefined) | inconclusive: 0.651 µM [falling, partial curve, poor fit] |
| CC1=C(C(=O)OCCOC(C)C)C(c2cccnc2)C2=C(CCCC2=O)N1 (centres undefined) | inactive |
| CCCCN(CCCC)Cc1ccc(C(=O)NNC(=O)Nc2ccccc2)o1 | inactive |
| CC1(C)COC(Cn2c3ccccc3c3ccccc32)O1 (centres undefined) | inconclusive: 20.6 µM [activator, partial curve] |
| CS(=O)(=O)N1CCC(N2CCN(Cc3ccc(F)cc3)C(=O)C2=O)CC1 | inconclusive: 20.6 µM [activator, single point] |
| CCOC(=O)N/N=C/c1ccccc1F | inconclusive: 14.6 µM [activator, partial curve] |
| CCn1c(-c2ccc(-c3ccccc3)cc2)c[nH]c1=S | inconclusive: 32.6 µM [falling, single point] |
| Cc1cc(NC(=O)c2ccc(Cl)c(S(=O)(=O)N3CCCCC3)c2)no1 | active: 23.1 µM |
| Cc1cc(/C=C2\SC(=S)NC2=O)c(C)n1-c1cccc(O)c1 | inactive |
| CCOC(=S)SCC(=O)Nc1nc(-c2ccc(Br)cc2)cs1 | inconclusive: 29.1 µM [falling, single point] |

Two of these compounds, reformatted:
Structure (SMILES) | Potency
Cc1cccc(NC(=O)C2CCCN(S(=O)(=O)c3cccc4cccnc34)C2)c1 (centres undefined) | inconclusive: 0.651 µM [falling, partial curve, poor fit]
CC1=C(C(=O)OCCOC(C)C)C(c2cccnc2)C2=C(CCCC2=O)N1 (centres undefined) | inactive

Further results

| Structure (SMILES) | Potency |
| --- | --- |
| CN(c1cccc(NC(=O)CSc2ccc(Cl)cc2)c1)S(C)(=O)=O | inconclusive: 6.51 µM [falling, partial curve] |
| COCCNC(=S)N1CCC(C(=O)c2ccc3c(c2)OCCO3)CC1 | inconclusive: 4.61 µM [activator, partial curve] |
| Cc1ccc(C)c2sc(N3CCN(C(=O)c4ccc([N+](=O)[O-])o4)CC3)nc12 | inactive |
| Nc1nc(SCC(=O)O)c2[nH]cnc2n1 | inactive |
| COc1ccccc1CNC(=O)C(Cc1ccccc1)NS(=O)(=O)c1ccc2c(c1)CCN2C(C)=O (centres undefined) | inactive |
| COc1ccc(CC(=O)Nc2cccc(-c3ccc4nnc(C)n4n3)c2)cc1OC | inconclusive: 23.1 µM [falling, single point] |
| COc1cccc(C2=NCCc3cc4c(cc32)OCO4)c1OC | inconclusive: 8.2 µM [falling, partial curve, poor fit] |
| CSc1ncc(C(=O)Nc2cccc(Cl)c2C)c(-c2ccccc2)n1 | inconclusive: 1.84 µM [activator, partial curve, poor fit] |
| CCCCCCNc1c([N+](=O)[O-])c(=O)sc2ccccc12 | inconclusive: 20.6 µM [falling, single point] |
| Cc1ccc(Cl)cc1N(C)C(=O)c1cc2ccc3cccnc3c2[nH]1 | inactive |
| COCCn1c(C)cc(C2=NNC(=Nc3ccc(F)cc3)SC2)c1C | inconclusive: 4.61 µM [activator, partial curve, poor fit] |
| CCN(CC)S(=O)(=O)c1ccc(C2=NOC3(C2)N(C)c2ccccc2C3(C)C)cc1 (centres undefined) | inconclusive: 2.91 µM [activator, full curve] |
| CNC(=O)c1[nH]cnc1C(=O)N[C@@H](Cc1ccccc1)C(=O)OC(C)(C)C | inactive |
| O=C(N/N=C/C=C\c1ccco1)c1cccs1 | inconclusive: 20.6 µM [activator, single point] |
| COc1ccc(C2=CC(=O)C[C@H](c3ccc(OC)c(OC)c3)C2)cc1 | inconclusive: 29.1 µM [falling, single point] |
| O=C(O)c1ccc(Cl)c(S(=O)(=O)N(Cc2ccccc2)c2ccccc2)c1 | inactive |
| Cn1c(NCCO)nc2c1c(=O)n(Cc1cccc(Cl)c1)c(=O)n2C | inconclusive: 20.6 µM [falling, partial curve, poor fit] |
| Cc1ccc(S(=O)(=O)N2CCN(c3ccnc4cc(Cl)ccc34)CC2)cc1C | inconclusive: 29.1 µM [falling, single point] |
| O=C(CN1CCN(S(=O)(=O)N2CCOCC2)CC1)Nc1ccc(Cl)c(Cl)c1 | inconclusive: 25.9 µM [falling, partial curve] |
| Cc1ccc2c(c1)N(C(=O)CCC(=O)NCc1ccccn1)CC(C)O2 (centres undefined) | inactive |
| O=C1NC2=C(CCc3ccccc32)C(c2ccc(Br)cc2)N1 (centres undefined) | inconclusive: 25.9 µM [falling, single point] |
| COc1ccc(N2CCN(CC(=O)NCc3ccc(Cl)cc3)CC2)cc1 | inactive |

From PubChem BioAssay AID504444 (National Center for Advancing Translational Sciences (NCATS), 2011)
